# Source: US20220133794A1 (Stanford University, published 2022)
# Protein sequences, listed by entry. Tags and fused reporters are not part of them. Residues count along the entry.
# UniProt Q9NPY3, residues 22-580: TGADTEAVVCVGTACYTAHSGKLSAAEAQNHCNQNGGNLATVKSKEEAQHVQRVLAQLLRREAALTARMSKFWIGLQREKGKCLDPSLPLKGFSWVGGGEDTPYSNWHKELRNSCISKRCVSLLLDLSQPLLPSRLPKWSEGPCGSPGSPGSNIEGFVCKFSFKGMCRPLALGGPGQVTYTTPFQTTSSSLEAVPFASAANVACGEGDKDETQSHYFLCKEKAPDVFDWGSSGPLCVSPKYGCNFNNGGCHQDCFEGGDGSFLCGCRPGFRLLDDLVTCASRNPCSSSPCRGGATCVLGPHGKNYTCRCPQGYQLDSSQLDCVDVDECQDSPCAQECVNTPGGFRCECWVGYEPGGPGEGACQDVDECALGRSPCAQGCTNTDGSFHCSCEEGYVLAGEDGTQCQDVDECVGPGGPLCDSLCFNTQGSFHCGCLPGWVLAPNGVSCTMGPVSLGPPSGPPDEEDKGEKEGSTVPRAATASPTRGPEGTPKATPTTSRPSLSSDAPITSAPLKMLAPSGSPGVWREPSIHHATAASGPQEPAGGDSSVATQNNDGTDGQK
# Results are given in words; binding and its absence hold for the method and conditions named. Some entries that bind do so weakly or less than the wild type.
# B1: humanized F11-G1 (Hu F11-G1) (antibody, V domains shown)
# VH: QVQLVQSGAEVKKPGASVKVSCKASGYTFTDYHMDWVKQAPGQGLEWIGDIDPYNGDTVFNQKFKGKATMTRDTSISTAYMELSRLRSDDTAVYYCTRGGDYWGQGTLVTVSS
# VL: DIVMTQTPLSLSVTPGQPASISCRSSQTLVHSNGNTYLHWYLQKPGQPPQLLIYKVSNRFSGVPDRFSGSGSGTDFTLKISRVEAEDVGVYFCSQSTHVPFTFGQGTKLEIK
# notes: The light chain was detected with anti-human kappa; also called humanized mCD93 antibody (F11); humanized anti-CD93 antibody
# B2: HuF11-G1 mutant (HuF11-G1 TM) (antibody, V domains shown)
# VH: B1 VH
# VL: B1 VL
# Experiments:
# [1] = target: human CD93/Fc fusion protein (human) (UniProt Q9NPY3); assay: ELISA, coated human CD93/Fc fusion protein
# [2] = target: human CD93/Fc fusion protein (human) (UniProt Q9NPY3); assay: ELISA, coated human CD93/Fc, HRP anti-human kappa, OD490
Binder,binding [1],binding [2]
B1,binds,binds
B2,binds,–
